# Experimental data reported in PubChem BioAssay (EPA / NIEHS).
# The chains behind the UniProt entries cited, without tags or fusion partners. Where a name states a change or a piece, a line headed by the entry shows the natural chain unless it says otherwise.
# UniProt P10275: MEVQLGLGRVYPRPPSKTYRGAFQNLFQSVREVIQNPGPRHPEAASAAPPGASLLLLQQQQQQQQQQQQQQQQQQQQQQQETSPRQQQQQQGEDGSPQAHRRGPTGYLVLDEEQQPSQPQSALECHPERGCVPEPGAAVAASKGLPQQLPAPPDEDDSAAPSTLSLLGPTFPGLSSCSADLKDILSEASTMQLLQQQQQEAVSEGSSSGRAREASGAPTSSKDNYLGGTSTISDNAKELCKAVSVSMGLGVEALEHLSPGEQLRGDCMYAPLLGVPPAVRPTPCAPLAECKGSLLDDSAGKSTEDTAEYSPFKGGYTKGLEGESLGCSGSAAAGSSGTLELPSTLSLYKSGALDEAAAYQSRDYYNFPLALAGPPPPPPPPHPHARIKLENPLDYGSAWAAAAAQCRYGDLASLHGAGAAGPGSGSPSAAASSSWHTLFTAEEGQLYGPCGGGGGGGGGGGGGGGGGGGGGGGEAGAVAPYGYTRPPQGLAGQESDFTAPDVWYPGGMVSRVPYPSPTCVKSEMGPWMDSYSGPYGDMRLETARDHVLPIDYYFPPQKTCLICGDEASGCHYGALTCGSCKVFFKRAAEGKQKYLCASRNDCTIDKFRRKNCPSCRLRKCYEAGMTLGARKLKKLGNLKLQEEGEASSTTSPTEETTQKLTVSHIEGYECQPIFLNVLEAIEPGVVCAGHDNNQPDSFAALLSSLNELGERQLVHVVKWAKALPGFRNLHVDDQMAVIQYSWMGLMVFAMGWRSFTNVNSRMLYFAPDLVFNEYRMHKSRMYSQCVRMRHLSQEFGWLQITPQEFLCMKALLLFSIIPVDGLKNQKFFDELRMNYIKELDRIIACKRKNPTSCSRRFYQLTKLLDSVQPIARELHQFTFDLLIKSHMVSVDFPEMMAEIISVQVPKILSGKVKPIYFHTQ
# UniProt P21709: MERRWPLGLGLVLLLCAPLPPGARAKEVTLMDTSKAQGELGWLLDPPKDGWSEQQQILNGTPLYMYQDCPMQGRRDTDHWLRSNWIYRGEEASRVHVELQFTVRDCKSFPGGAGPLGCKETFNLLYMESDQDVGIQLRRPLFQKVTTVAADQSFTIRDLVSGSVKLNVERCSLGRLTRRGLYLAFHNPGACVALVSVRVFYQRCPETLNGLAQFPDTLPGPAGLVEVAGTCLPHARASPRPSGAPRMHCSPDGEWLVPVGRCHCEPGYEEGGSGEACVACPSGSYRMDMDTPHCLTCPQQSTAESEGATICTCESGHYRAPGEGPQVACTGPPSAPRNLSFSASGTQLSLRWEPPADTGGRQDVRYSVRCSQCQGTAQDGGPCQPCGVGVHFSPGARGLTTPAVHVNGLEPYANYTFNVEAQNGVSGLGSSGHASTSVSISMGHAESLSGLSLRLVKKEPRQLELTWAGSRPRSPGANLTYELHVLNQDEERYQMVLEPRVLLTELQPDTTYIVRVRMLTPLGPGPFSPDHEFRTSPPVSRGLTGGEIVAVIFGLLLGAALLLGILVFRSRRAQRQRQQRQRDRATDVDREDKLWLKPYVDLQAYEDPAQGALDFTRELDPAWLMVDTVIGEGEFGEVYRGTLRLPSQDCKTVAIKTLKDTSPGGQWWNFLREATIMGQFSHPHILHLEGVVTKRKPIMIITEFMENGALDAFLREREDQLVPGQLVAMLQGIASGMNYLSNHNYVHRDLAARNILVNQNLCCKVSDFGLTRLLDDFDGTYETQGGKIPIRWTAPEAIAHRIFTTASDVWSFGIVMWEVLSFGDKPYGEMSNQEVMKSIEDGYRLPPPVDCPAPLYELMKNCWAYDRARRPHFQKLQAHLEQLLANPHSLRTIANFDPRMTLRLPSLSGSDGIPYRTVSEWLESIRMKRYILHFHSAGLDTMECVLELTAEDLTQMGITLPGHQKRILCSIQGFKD
# UniProt P17948, whole entry, looked up: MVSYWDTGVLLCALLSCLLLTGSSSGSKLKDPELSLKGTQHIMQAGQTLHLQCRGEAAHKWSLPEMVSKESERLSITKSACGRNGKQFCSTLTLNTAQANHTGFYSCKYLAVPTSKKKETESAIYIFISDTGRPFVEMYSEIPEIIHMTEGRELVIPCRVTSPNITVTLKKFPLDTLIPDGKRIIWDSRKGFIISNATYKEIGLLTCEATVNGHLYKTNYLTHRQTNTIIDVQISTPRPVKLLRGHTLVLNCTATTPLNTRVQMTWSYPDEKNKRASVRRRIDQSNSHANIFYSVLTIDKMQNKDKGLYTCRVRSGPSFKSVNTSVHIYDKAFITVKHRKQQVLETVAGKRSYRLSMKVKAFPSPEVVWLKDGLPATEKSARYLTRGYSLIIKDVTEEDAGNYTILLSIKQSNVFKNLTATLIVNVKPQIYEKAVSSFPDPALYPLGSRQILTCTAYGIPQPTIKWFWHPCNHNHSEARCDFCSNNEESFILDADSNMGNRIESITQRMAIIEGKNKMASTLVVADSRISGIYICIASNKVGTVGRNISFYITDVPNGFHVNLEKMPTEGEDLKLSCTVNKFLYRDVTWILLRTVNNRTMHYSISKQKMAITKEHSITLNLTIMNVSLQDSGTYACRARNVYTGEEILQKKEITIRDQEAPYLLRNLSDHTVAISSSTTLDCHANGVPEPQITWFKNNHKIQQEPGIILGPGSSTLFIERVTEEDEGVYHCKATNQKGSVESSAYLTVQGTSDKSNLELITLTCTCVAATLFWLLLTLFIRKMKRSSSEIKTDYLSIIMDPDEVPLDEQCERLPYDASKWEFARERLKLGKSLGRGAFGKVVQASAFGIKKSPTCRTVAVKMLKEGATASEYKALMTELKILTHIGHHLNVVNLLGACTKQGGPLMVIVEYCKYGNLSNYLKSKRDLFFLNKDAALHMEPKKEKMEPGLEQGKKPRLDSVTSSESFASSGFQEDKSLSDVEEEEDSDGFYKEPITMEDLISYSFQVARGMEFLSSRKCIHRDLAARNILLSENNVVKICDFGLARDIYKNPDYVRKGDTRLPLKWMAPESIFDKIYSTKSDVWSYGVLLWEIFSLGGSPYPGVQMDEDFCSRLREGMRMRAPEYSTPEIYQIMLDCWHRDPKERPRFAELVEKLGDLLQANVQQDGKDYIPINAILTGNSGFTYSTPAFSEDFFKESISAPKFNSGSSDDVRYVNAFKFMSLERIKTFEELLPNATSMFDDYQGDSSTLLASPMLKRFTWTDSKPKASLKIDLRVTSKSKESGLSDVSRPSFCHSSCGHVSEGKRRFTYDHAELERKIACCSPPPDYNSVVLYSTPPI
# UniProt O75469: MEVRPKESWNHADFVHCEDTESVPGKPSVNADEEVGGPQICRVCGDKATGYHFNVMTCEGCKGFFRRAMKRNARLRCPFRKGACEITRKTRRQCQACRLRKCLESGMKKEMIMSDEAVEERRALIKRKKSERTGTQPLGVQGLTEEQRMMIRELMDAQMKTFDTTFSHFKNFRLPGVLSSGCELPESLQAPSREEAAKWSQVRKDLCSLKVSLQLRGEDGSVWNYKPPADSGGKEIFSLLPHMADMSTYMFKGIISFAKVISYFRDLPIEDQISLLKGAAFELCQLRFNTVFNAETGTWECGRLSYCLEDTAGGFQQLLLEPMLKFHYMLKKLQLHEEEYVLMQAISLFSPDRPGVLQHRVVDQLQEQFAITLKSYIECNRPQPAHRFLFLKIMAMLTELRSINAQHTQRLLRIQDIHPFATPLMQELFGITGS
# UniProt P37231: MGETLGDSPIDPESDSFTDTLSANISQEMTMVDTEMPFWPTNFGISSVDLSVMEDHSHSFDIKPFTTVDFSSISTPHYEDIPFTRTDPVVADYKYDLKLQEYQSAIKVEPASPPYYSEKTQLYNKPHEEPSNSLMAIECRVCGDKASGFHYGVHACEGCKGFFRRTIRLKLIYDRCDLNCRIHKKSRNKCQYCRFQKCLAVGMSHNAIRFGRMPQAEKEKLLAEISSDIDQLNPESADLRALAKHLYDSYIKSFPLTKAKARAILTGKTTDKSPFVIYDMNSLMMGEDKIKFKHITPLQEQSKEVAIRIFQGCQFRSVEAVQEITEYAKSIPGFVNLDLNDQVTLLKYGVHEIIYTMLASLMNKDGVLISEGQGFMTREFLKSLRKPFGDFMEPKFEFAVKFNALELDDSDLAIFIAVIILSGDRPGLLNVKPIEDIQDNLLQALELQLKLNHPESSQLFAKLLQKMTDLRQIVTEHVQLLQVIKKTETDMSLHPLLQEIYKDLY
# UniProt P05979, whole entry, looked up: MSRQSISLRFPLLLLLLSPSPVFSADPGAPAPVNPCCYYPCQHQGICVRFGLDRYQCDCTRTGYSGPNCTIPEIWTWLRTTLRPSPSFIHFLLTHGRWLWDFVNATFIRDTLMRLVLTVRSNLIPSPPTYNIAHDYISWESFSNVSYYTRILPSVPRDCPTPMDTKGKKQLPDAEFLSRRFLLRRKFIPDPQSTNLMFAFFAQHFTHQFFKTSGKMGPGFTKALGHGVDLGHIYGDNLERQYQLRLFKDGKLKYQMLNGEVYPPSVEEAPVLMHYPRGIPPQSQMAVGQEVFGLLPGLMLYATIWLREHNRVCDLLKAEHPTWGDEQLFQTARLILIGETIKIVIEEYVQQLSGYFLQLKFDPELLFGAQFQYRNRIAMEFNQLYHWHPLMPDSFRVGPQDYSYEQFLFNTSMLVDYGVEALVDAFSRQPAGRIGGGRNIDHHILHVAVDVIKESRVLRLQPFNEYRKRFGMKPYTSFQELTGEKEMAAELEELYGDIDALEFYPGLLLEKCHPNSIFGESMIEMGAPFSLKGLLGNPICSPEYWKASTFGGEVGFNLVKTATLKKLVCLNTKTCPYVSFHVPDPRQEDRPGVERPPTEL
# UniProt Q01717: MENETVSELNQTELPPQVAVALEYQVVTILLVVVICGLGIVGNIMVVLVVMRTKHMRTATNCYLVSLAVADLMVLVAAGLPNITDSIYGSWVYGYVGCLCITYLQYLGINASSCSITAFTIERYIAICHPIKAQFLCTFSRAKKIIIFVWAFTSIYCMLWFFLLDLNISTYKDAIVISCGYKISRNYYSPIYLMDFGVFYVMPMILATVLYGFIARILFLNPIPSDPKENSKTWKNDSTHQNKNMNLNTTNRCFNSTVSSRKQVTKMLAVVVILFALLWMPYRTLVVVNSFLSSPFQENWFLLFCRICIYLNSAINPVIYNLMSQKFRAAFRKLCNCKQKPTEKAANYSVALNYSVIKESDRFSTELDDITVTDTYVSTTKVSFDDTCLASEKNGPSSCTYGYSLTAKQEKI
# UniProt Q07869: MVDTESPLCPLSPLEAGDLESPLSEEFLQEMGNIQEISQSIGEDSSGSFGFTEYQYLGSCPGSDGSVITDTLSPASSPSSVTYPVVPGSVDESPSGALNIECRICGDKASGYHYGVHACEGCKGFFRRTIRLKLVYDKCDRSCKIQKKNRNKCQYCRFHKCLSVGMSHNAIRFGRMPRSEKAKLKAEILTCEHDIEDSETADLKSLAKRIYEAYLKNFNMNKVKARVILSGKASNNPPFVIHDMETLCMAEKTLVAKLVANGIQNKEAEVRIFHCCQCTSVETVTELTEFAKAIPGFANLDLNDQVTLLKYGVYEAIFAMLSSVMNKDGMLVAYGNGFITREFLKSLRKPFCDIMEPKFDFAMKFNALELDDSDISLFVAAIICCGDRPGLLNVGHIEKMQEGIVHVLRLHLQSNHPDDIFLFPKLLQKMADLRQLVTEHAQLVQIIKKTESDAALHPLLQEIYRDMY
# UniProt P23975, whole entry, looked up: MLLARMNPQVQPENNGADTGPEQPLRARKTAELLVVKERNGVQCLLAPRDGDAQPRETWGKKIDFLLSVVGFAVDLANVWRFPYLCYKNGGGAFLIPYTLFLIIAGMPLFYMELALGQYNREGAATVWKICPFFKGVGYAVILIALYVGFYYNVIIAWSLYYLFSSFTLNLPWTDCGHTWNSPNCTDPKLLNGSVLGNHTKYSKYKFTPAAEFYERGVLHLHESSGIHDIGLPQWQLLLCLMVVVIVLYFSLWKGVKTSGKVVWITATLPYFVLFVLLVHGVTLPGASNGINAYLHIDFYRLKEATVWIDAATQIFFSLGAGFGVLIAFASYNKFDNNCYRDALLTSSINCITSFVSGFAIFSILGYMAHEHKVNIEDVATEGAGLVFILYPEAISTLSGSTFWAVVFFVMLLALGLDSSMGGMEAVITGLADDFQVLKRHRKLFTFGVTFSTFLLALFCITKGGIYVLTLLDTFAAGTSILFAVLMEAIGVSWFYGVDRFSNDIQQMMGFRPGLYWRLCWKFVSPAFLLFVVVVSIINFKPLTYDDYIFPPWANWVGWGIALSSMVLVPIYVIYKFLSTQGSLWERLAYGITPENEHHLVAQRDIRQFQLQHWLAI
# “And” between values parts separate entries of the source, which are not always exact repeats. Equal values may be shown once. The inconclusive results got no clear call from the source; some entries with a clear call stand among them for comparison. For part of these data: Potencies of inconclusive entries are doubtful fits and often do not repeat. Where a structure was tested more than once in an assay, its records may differ in their call. The source made the active and inactive calls. The calls were made as follows: active = hit-call score of the fitted dose curve at least 0.9, where 1 is the maximum; inconclusive = response in the unintended direction; inactive = score below 0.9.
# Experiments:
# AR (gene 367) = AR (gene 367) (UniProt P10275); test: ACEA_AR_agonist_80hr: ACEA Biosciences xCELLigence Real-Time Cell Analysis on Androgen Receptor Agonism for Proliferation (AID 2283783);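 also: hits increase impedance growth signal above DMSO baseline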
# In short: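 22Rv1 human prostate cancer cells were seeded after preconditioning in assay medium and monitored overnight, then dosed in an eight-point 1:4 dilution series from 100 uM (≤0.5% DMSO). Impedance-based growth was read at 80 h, gain-of-signal versus DMSO.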
# [1] = target: human Ephrin type-A Receptor 1 (EphA1), EPHA1 (gene 2041) (UniProt P21709); test: NVS_ENZ_hEphA1: NovaScreen (NVS) Enzymatic Assay for human Ephrin type-A Receptor 1 (EphA1) (AID 2283158);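 also: activity is signal loss versus DMSO meaning EphA1 kinase inhibition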
# In short: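 Biochemical kinase assay run cell-free; 1 h incubation; readout is fluorescence with mobility-shift separation of product. Concentration-response up to 50 uM for actives from a 25 uM screen.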
# [2] = target: human Vascular Endothelial Growth Factor Receptor 1 (VEGFR1), FLT1 (gene 2321) (UniProt P17948); test: NVS_ENZ_hVEGFR1: NovaScreen (NVS) Enzymatic Assay for human Vascular Endothelial Growth Factor Receptor 1 (VEGFR1) (AID 2283226)
# In short: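 Cell-free assay of recombinant human VEGFR1 kinase with substrate, measured 1 h after dosing; fluorescence with electrophoretic mobility-shift separation of substrate and product, referenced to DMSO; primary screen at 25 uM in duplicate, actives then run in concentration series.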
# [3] = target: Nucleoli Translocation, AR (gene 367) (UniProt P10275); test: UPITT_HCI_U2OS_AR_TIF2_Nucleoli_Agonist: University of Pittsburgh U2OS Androgen Receptor-Transcriptional Intermediary Factor 2 (AR-TIF2) Agonism High Content Imaging Assay for Nucleoli Translocation (AID 2283998)
# In short: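 Red-tagged human androgen receptor co-expressed with GFP-tagged TIF2 serves as the binding reporter. Primary testing used 20 uM final (0.2% DMSO); follow-up dose response covered 0.195 to 50 uM final (0.5% DMSO).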
# [4] = target: Nuclear receptor subfamily 1 group I member 2 (Homo sapiens) (UniProt O75469); test: NVS_NR_hPXR: NovaScreen (NVS) Nuclear Receptor Binding Assay for human Pregnane X Receptor (PXR) (AID 2283365);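 also: a drop in FRET signal versus DMSO baseline means the compound binds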
# In short: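 Binding was measured by time-resolved fluorescence resonance energy transfer after a 2 h exposure of extracted human PXR protein without cells. Compounds were first tested at 25 uM in duplicate, with concentration series for actives; DMSO defined baseline.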
# [5] = target: Peroxisome proliferator-activated receptor gamma (Homo sapiens) (UniProt P37231); test: NVS_NR_hPPARg: NovaScreen (NVS) Nuclear Receptor Binding Assay for human Peroxisome Proliferator-activated Receptor gamma (PPARg) (AID 2283370)
# In short: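 Fluorescence polarization measures competitive binding to extracted PPARg in a cell-free format. Reading is taken at 2 h; activity is signal loss relative to DMSO. Screening at 25 uM in duplicate preceded confirmatory dose series.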
# [6] = target: sheep Cyclooxygenase-1 (Cox1), PTGS1 (gene 443551) (UniProt P05979); test: NVS_ENZ_oCOX1: NovaScreen (NVS) Enzymatic Assay for sheep Cyclooxygenase-1 (Cox1) (AID 2283239);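 also: actives reduce cyclooxygenase activity so potencies are for inhibitors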
# In short: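 Native ovine seminal vesicle protein serves as enzyme source in this biochemical assay. Colorimetric signal is recorded 0.66 h after chemical addition, and decreases versus the DMSO control define activity.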
# [7] = target: rat Thyrotropin Releasing Hormone Receptor (TRH), Trhr (gene 25570) (UniProt Q01717); test: NVS_GPCR_rTRH: NovaScreen (NVS) G Protein-Coupled Receptor Assay for rat Thyrotropin Releasing Hormone Receptor (TRH) (AID 2283329);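 also: hit means lower bound tracer signal versus DMSO baseline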
# In short: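 Cell-free radioligand binding on rat forebrain membranes; bound tracer measured by filter-based scintillation counting 4 hours after dosing. Loss of signal versus DMSO baseline indicates displacement; primary screen at 25 uM in duplicate, actives then run in concentration series.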
# [8] = target: Bile acid receptor (Homo sapiens) (UniProt Q96RI1); test: OT_FXR_FXRSRC1_1440: Odyssey Thera (OT) 24-hour HEK293T Protein-Complementation Assay for Farnesoid X receptor/SRC-1 Co-activator (AID 2283384)
# In short: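 HEK293T cells were dosed with compound and read 24 h later by fluorescence intensity from protein-fragment complementation reporting FXR/SRC-1 co-activator interaction. Gain of signal was fitted relative to DMSO negative control as baseline.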
# [9] = target: human Peroxisome Proliferator-activated Receptor alpha (PPARa), PPARA (gene 5465) (UniProt Q07869); test: NVS_NR_hPPARa: NovaScreen (NVS) Nuclear Receptor Binding Assay for human Peroxisome Proliferator-activated Receptor alpha (PPARa) (AID 2283359);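 also: activity means loss of TR-FRET signal versus DMSO baseline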
# In short: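 Cell-free binding assay with extracted human protein, read by TR-FRET 1 h after chemical dosing. Loss of signal relative to DMSO baseline indicates binding. Primary screen used duplicate single concentration (25 uM); actives followed up in concentration series.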
# [10] = ACEA_AR_agonist_AUC_viability: ACEA Biosciences xCELLigence Real-Time Cell Analysis on Androgen Receptor Agonism for Viability (AID 2283775);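 as to AC50: viability read 80 hours after compound addition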
# In short: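 Read-out is area under the impedance curve at 80 h post-dose in 22Rv1 cells, with DMSO as baseline and signal loss taken as reduced viability. Compounds ran in duplicate from 100 uM final.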
# [11] = CCTE_Deisenroth_AIME_384WELL_CTox_Inactive: Cytotoxicity Assessment (CTOX) in CCTE's 384-well Estrogen Receptor Transactivation Assay without AIME metabolic competence (metabolism negative), Deisenroth Lab (AID 2284039);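 also: cell viability via live-cell protease substrate cleaved to fluorescent probe; cells exposed 24 h to medium preincubated 2 h with alginate-water beads without S9; loss of fluorescence signal means loss of viability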
# In short: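 VM7Luc4E2 human breast cells received conditioned medium from a 2 h incubation of chemical with alginate-water microspheres (no S9), then were exposed 24 h. Viability was read as protease-substrate cleavage to a fluorescent probe; loss of signal was fitted bidirectionally over 0.002–200 uM.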
# [12] = Tanguay_ZF_120hpf_CIRC_legacy: (Legacy) Oregon State University Tanguay Lab 120 Hour Post-fertilization zebrafish Assay for Circulatory Malformation (AID 2283651)
# In short: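 Tropical 5D wild-type embryos, dechorionated with pronase at 4 hpf, were placed singly in wells at 6 hpf and exposed statically at 28C to 120 hpf (0.64% DMSO final). Circulatory malformation was scored present/absent by brightfield microscopy.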
# [13] = ACEA_AR_antagonist_AUC_viability: ACEA Biosciences xCELLigence Real-Time Cell Analysis on Androgen Receptor Antagonism for Viability (AID 2283776);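 also: 22Rv1 human prostate cancer cells growing on impedance electrode plates; area under impedance growth curve at 80 h after dosing as viability; hits lower the growth signal relative to DMSO meaning cytotoxicity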
# In short: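 Real-time electrical impedance tracks 22Rv1 proliferation after continuous compound exposure (top 100 uM final, 1:4 steps, 8 concentrations). The 80 h area-under-curve serves as the cytotoxicity readout relative to DMSO.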
# [14] = Tanguay_ZF_120hpf_SOMI_legacy: (Legacy) Oregon State University Tanguay Lab 120 Hour Post-fertilization zebrafish Assay for Somite Malformation (AID 2283647)
# In short: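 5D WT zebrafish; chorion removed 4 hpf; 1 embryo/well from 6 hpf; static exposure to 120 hpf, 28C, 0.64% DMSO final. Endpoint: somite malformation, binary, brightfield. Mortality excluded.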
# [15] = target: human Norepinephrine Transporter (NET), SLC6A2 (gene 6530) (UniProt P23975); test: NVS_TR_hNET: NovaScreen (NVS) Transporter Assay for human Norepinephrine Transporter (NET) (AID 2283377);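 also: cell-free membrane protein extracted from CHO cells expressing human NET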
# In short: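 Radioligand binding to human NET in cell-free CHO-derived protein preparations, read by filter-based scintillation counting 1 hour after dosing. Loss of signal versus DMSO baseline indicated displacement; primary screening in duplicate at 25 uM, actives then titrated.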
# [16] = target: Estrogen receptor beta (Homo sapiens) (UniProt Q92731); test: OT_ER_ERbERb_0480: Odyssey Thera (OT) 8-hour HEK293T Protein-Complementation Assay for Estrogen Receptor-beta/-beta Homodimer (AID 2283357);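 also: active means signal gain over DMSO baseline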
# In short: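 Readout: increase in mean fluorescence intensity (nucleus for agonists; nucleus plus cytoplasm for antagonists) relative to DMSO, from a reporter-fragment complementation of human ER-beta LBD homodimer in HEK293T cells dosed 8 hours.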
# [17] = Tanguay_ZF_120hpf_OTIC_legacy: (Legacy) Oregon State University Tanguay Lab 120 Hour Post-fertilization zebrafish Assay for Otic Vesicle Malformation (AID 2283639)
# In short: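 Tropical 5D wild-type zebrafish embryos were exposed statically in sealed, foil-covered plates at 28C until 120 hpf, with 0.64% (vol/vol) DMSO final. Otic vesicle malformation was scored present/absent by brightfield microscopy, with DMSO as baseline.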
# [18] = Tanguay_ZF_120hpf_TRUN_legacy: (Legacy) Oregon State University Tanguay Lab 120 Hour Post-fertilization zebrafish Assay for Truncated Body (AID 2283655)
# In short: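 5D wild-type larvae; pronase dechorionation; static exposure 6→120 hpf, 28C; DMSO 0.64% final; 5uM trimethyltin chloride positive control. Readout: presence/absence of truncated body, analyzed relative to DMSO.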
# [19] = Tanguay_ZF_120hpf_PFIN_legacy: (Legacy) Oregon State University Tanguay Lab 120 Hour Post-fertilization zebrafish Assay for Pectoral Fin Malformation (AID 2283648);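 also: each larva judged yes or no for fin defect by brightfield with dead larvae skipped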
# In short: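 Tropical 5D wild-type embryos, dechorionated with pronase at 4 hpf, were placed singly in wells at 6 hpf and statically exposed until 120 hpf at 28C, sealed and dark, with 0.64% (vol/vol) final DMSO; pectoral fin malformation scored present/absent.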
compound,measurement,setting,value
O=C(c1ccccc1)c1ccccc1O,AC50,AR (gene 367),inconclusive: 16.6 µM
CC(=O)Nc1ccc(C(=O)CCl)cc1,AC50,[1],inconclusive: 0.201 µM
same,AC50,[2],active: 40.1 µM
CC(C)[N+](C)(CCOC(=O)C1c2ccccc2Oc2ccccc21)C(C)C,AC50,[1],inconclusive: 25 µM
CC(CO)c1ccccc1 (stereo not drawn),AC50,[2],inconclusive: 0.1 µM
CC(=O)OC1CCCCC1C(C)(C)C (stereo not drawn),AC50,AR (gene 367),inconclusive: 0.203 µM
same,AC50,[3],inconclusive: 50 µM
CCc1cccc(C)c1N,outcome,[4],inactive
same,outcome,[5],inactive
same,AC50,AR (gene 367),inconclusive: 16.6 µM
CC(C)[C@@H]1CC[C@@H](C)C[C@H]1O,AC50,[1],inconclusive: 23.1 µM
same,AC50,[6],inconclusive: 23.1 µM
same,AC50,[7],inconclusive: 6.55 µM
same,AC50,[8],inconclusive: 12.7 µM
same,AC50,AR (gene 367),inconclusive: 16.6 µM
same,outcome,[3],inactive
CCCCCCCCCCCCCOS(=O)(=O)O,AC50,[9],active: 2.1 µM
same,AC50,[10],inconclusive: 0.493 µM
same,outcome,AR (gene 367),inactive
same,AC50,[3],inconclusive: 50 µM
same,AC50,[11],active: 96.3 µM
CCOCCOCCO,AC50,[4],inconclusive: 4.96 µM
same,outcome,[12],inactive
same,AC50,[13],inconclusive: 50 µM
same,AC50,AR (gene 367),inconclusive: 50 µM
O=c1c(-c2ccc(O)cc2)coc2cc(O)cc(O)c12,outcome,[6],inactive
same,AC50,[9],inconclusive: 25 µM
same,AC50,[5],active: 39.4 µM and inconclusive: 25 µM
same,outcome,[8],inactive
same,outcome,[14],inactive
same,outcome,AR (gene 367),inactive
CC(CCO)CC(C)(C)C (stereo not drawn),AC50,[7],inconclusive: 0.76 µM
same,outcome,[10],inactive
same,outcome,[13],inactive
same,AC50,AR (gene 367),inconclusive: 0.396 µM
same,outcome,[3],inactive
CCCCC(CC)COC(=O)c1ccc(C(=O)OCC(CC)CCCC)cc1 (stereo not drawn),AC50,[9],active: 25 µM
same,AC50,[15],inconclusive: 46.5 µM
same,AC50,[8],inconclusive: 50 µM
same,outcome,[14],inactive
same,AC50,[10],inconclusive: 0.00117 µM
COc1ccc(O)cc1,outcome,[16],inactive
same,AC50,AR (gene 367),inconclusive: 16.8 µM
same,AC50,[3],inconclusive: 50 µM
CCCOC(=O)NCCCN(C)C,AC50,[17],inconclusive: 38.4 µM
same,AC50,[18],inconclusive: 0.0129 µM
CC(=O)O,outcome,[17],inactive
same,AC50,[19],inconclusive: 0.00818 µM

# Retrieved one by one from the entries so far:
compound,measurement,setting,value
CCCOC(=O)NCCCN(C)C,AC50,[18],inconclusive: 0.0129 µM
O=c1c(-c2ccc(O)cc2)coc2cc(O)cc(O)c12,outcome,AR (gene 367),inactive
CCCOC(=O)NCCCN(C)C,AC50,[17],inconclusive: 38.4 µM
